Values of other authors, collected in patent US12655129B2, “Heterocyclic EGFR inhibitors for use in the treatment of cancer” (Blueprint Medicines Corporation, priority 2021, dated 2026).
Some entries share one result that the patent states for a list of compounds.

Test system: EGFR M+ NSCLC patients
Conditions: EGFR M+ NSCLC patients treated first line (1L); one range stated for the four TKIs together; cited from earlier work

C=CC(=O)Nc1cc(Nc2nccc(-c3cn(C)c4ccccc34)n2)c(OC)cc1N(C)CCN(C)C [osimertinib]
objective response rate (ORR): 60-85%
